Measured data: PubChem BioAssay AID686943 (Drosophila RNAi Screening Center, 2013)
The screen tested about 23,000 reagents; this is a random part of those with a known target gene and a result. 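Extra replicates exist only for a retested subset of genes; insulin dose and duration not given; both raised and lowered dpERK matter.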 A plus sign joins genes that one reagent is predicted to hit. Not all columns of the deposit are shown. Not stated in the record: the amount of reagent, the time to read-out.

Aim: 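Fly genes whose loss alters ERK activation after insulin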 (primary screen)
Cells: Drosophila S2R+ haemocyte-like cells expressing YFP-tagged ERK (Rolled)
Reagent: long dsRNA against Drosophila genes
Challenge: insulin stimulation versus unstimulated cells; dose and duration not given
Measured: 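Antibody staining for doubly phosphorylated ERK divided by ERK-YFP signal, as plate z-scores, in insulin-treated and untreated cells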
Scale: replicate 1, z-score of dpERK with insulin and replicate 2, z-score of dpERK with insulin: higher = more active ERK per ERK-YFP after insulin

Cpr49Ah (GeneID 36354) [DRSC07204] | replicate 1, z-score of dpERK with insulin = -0.35; replicate 2, z-score of dpERK with insulin = 1.01
CG31343 (GeneID 326133) [DRSC15887] | replicate 1, z-score of dpERK with insulin = -1; replicate 2, z-score of dpERK with insulin = 0.5
CG13850 (GeneID 42630) [DRSC14700] | replicate 1, z-score of dpERK with insulin = 0.54; replicate 2, z-score of dpERK with insulin = -0.35
CG8366 (GeneID 36754) [DRSC07153] | replicate 1, z-score of dpERK with insulin = 2.22; replicate 2, z-score of dpERK with insulin = 0.84
RpS28a (GeneID 43564) [DRSC15064] | replicate 1, z-score of dpERK with insulin = 0.81; replicate 2, z-score of dpERK with insulin = -0.21
HisT (GeneID 35697) [DRSC05051] | replicate 1, z-score of dpERK with insulin = 0.32; replicate 2, z-score of dpERK with insulin = 0.91
HisT (GeneID 35697) [DRSC05052] | replicate 1, z-score of dpERK with insulin = 0.52; replicate 2, z-score of dpERK with insulin = -0.47
HisT (GeneID 35697) [DRSC06405] | replicate 1, z-score of dpERK with insulin = -0.14; replicate 2, z-score of dpERK with insulin = -1.61
mol (GeneID 34872) [DRSC01431] | replicate 1, z-score of dpERK with insulin = -1.94; replicate 2, z-score of dpERK with insulin = -1.35
mol (GeneID 34872) [DRSC01912] | replicate 1, z-score of dpERK with insulin = -1.62; replicate 2, z-score of dpERK with insulin = -1.2
mol (GeneID 34872) [DRSC02479] | replicate 1, z-score of dpERK with insulin = -0.18; replicate 2, z-score of dpERK with insulin = 0.23
NSD (GeneID 43351) [DRSC15691] | replicate 1, z-score of dpERK with insulin = -0.04; replicate 2, z-score of dpERK with insulin = -0.07
para (GeneID 32619) [DRSC19141] | replicate 1, z-score of dpERK with insulin = 0.27; replicate 2, z-score of dpERK with insulin = 0.1
para (GeneID 32619) [DRSC20360] | replicate 1, z-score of dpERK with insulin = 0.84; replicate 2, z-score of dpERK with insulin = 0.26

Targets above whose gene name starts with H or h (3):
HisT (GeneID 35697) [DRSC05051] | replicate 1, z-score of dpERK with insulin = 0.32; replicate 2, z-score of dpERK with insulin = 0.91
HisT (GeneID 35697) [DRSC05052] | replicate 1, z-score of dpERK with insulin = 0.52; replicate 2, z-score of dpERK with insulin = -0.47
HisT (GeneID 35697) [DRSC06405] | replicate 1, z-score of dpERK with insulin = -0.14; replicate 2, z-score of dpERK with insulin = -1.61

Further results follow.
Mcm5 (GeneID 41296) [DRSC16735] | replicate 1, z-score of dpERK with insulin = 0.29; replicate 2, z-score of dpERK with insulin = -0.09
Zmynd8 (GeneID 43730) [DRSC15310] | replicate 1, z-score of dpERK with insulin = 0.37; replicate 2, z-score of dpERK with insulin = -0.44
CG7573 (GeneID 39272) [DRSC10884] | replicate 1, z-score of dpERK with insulin = 0.02; replicate 2, z-score of dpERK with insulin = 0.53
CG3792 (GeneID 33717) [DRSC02725] | replicate 1, z-score of dpERK with insulin = 0.83; replicate 2, z-score of dpERK with insulin = -0.06
CG42586 + CG31775 [DRSC01413] | replicate 1, z-score of dpERK with insulin = 0.96; replicate 2, z-score of dpERK with insulin = 0.95
CG43326 + CG43325 [DRSC04157] | replicate 1, z-score of dpERK with insulin = 0.26; replicate 2, z-score of dpERK with insulin = 0.33
G9a (GeneID 30971) [DRSC18619] | replicate 1, z-score of dpERK with insulin = 0.3; replicate 2, z-score of dpERK with insulin = 0
